According to article PMC4357451:
These are yes or no findings as the source states them, for the method shown. In cells and extracts the contact can be indirect. Some binding calls cover weakened binding; strength is not graded here. Sequences can lack the tags named with a protein.

Sequences of proteins named here, by UniProt entry; tags and fusion partners are left off. A change or cut given only in a name is not applied to a line headed by its entry. A line that says so, or that is headed by a name, gives the form on record, which may keep a tag or linker.
USP9X (ubiquitin-specific peptidase 9 X-linked), endogenous in HEK293T cells (Q93008-3, form named): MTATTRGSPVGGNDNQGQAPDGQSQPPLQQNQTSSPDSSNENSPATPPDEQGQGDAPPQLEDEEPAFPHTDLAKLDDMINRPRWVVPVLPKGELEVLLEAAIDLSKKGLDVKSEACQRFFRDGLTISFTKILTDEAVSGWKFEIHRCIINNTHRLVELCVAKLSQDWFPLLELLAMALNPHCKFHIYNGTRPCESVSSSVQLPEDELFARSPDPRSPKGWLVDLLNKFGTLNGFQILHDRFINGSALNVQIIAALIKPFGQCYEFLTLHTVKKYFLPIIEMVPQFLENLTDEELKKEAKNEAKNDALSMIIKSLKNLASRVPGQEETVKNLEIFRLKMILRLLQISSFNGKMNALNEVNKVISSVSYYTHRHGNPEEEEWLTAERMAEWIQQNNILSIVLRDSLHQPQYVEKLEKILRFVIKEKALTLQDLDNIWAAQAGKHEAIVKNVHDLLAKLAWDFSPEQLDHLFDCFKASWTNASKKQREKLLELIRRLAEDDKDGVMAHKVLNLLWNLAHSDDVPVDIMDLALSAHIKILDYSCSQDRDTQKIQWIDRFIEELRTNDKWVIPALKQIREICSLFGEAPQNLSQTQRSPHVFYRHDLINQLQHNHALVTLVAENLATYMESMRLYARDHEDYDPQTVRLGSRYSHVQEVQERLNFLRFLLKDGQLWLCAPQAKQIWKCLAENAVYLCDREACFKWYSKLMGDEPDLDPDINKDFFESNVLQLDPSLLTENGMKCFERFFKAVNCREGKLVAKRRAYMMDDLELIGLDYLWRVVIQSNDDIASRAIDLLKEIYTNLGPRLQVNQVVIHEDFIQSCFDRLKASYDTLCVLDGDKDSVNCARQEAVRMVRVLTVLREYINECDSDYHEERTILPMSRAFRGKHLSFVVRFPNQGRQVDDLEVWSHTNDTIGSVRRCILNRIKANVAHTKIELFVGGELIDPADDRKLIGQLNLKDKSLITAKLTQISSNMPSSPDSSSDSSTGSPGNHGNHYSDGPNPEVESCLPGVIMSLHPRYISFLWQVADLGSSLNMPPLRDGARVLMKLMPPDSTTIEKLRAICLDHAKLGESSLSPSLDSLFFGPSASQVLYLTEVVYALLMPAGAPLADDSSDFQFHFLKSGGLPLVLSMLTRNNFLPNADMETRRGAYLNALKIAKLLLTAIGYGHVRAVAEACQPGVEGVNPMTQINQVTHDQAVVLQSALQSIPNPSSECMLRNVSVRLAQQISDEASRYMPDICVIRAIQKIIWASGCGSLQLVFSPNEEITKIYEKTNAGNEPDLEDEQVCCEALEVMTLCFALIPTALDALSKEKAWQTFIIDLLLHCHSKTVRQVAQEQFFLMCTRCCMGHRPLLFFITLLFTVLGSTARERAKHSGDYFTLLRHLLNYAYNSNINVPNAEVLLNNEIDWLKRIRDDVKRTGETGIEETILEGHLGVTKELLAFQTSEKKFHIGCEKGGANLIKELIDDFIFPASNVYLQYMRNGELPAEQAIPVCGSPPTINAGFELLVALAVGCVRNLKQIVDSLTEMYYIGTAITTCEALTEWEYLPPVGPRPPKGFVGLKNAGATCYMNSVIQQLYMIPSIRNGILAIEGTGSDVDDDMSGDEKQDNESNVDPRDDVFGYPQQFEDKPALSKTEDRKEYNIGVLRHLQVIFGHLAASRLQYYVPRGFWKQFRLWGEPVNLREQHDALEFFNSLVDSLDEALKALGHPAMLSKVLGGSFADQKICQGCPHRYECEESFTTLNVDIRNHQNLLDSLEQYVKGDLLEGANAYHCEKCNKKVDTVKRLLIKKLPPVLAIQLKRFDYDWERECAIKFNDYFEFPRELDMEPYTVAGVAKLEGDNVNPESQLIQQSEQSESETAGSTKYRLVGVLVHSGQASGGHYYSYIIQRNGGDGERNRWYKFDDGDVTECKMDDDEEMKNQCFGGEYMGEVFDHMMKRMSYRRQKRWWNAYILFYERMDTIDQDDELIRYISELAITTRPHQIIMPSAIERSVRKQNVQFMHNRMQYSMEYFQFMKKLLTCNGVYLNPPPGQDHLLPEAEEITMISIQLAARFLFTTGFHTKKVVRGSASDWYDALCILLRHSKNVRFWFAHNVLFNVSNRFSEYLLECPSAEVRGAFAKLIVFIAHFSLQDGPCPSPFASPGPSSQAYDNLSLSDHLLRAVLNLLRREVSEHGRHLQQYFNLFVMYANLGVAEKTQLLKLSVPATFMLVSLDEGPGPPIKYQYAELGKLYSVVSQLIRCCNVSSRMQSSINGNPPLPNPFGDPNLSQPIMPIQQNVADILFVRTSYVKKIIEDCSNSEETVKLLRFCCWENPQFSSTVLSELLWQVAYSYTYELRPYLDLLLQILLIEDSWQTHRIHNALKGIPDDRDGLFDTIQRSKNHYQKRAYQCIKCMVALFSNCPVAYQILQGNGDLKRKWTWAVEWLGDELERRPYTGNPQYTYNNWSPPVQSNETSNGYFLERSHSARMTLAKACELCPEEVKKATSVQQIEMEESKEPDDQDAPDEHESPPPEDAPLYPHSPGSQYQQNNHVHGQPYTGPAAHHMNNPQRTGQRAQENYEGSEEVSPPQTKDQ

Assays:
Assay in all cases: co-IP; HEK293T transfected with Flag-tagged PRICKLE constructs, lysed in NET-100 after 48 h, anti-Flag beads overnight at 4°C; blots with anti-USP9X and anti-BCR for the endogenous proteins
[1] = target: T1, Flag-CPRICKLE1 (C-terminus of PRICKLE1, aa 314 to 831) (human) (UniProt Q96MT3)
T1 sequence: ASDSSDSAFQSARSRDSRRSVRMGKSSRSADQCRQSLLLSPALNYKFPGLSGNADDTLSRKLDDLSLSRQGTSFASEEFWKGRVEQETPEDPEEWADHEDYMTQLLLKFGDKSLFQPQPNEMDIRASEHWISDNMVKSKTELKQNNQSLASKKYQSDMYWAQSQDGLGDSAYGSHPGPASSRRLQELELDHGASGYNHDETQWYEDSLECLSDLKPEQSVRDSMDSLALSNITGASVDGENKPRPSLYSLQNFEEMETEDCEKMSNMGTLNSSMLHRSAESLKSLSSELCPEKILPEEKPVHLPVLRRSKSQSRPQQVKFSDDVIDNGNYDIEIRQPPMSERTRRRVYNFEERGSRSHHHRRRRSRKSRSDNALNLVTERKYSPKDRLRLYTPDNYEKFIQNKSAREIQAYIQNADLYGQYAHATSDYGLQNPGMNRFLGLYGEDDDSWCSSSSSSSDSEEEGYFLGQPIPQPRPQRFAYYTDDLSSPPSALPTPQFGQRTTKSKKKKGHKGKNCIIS

[2] = target: T2, Flag-PRICKLE2 (human) (UniProt Q7Z3G6)
T2 sequence: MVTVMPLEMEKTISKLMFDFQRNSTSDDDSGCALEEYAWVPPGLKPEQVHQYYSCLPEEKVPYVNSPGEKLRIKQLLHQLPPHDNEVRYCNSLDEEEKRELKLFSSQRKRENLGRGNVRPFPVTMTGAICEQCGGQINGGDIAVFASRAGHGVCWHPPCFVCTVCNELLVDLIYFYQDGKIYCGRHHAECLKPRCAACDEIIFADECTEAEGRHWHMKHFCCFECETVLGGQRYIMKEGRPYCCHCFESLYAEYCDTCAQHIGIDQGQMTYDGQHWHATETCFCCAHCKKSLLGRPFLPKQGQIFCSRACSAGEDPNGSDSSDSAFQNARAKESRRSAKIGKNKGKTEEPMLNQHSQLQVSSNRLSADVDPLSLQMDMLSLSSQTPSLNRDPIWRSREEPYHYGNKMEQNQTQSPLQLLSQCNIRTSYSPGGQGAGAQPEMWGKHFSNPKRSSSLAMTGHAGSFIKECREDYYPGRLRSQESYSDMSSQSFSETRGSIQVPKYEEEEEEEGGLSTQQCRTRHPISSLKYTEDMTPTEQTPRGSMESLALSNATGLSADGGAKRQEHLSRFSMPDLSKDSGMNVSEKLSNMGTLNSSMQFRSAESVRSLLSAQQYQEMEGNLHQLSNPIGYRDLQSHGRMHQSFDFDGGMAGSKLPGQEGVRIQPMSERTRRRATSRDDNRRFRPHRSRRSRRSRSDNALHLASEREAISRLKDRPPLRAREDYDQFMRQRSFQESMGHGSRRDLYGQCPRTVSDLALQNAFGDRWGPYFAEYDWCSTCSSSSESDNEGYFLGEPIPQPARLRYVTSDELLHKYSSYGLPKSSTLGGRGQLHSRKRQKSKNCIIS

[3] = target: T3, Flag-PRICKLE1 (human) (UniProt Q96MT3)
T3 sequence: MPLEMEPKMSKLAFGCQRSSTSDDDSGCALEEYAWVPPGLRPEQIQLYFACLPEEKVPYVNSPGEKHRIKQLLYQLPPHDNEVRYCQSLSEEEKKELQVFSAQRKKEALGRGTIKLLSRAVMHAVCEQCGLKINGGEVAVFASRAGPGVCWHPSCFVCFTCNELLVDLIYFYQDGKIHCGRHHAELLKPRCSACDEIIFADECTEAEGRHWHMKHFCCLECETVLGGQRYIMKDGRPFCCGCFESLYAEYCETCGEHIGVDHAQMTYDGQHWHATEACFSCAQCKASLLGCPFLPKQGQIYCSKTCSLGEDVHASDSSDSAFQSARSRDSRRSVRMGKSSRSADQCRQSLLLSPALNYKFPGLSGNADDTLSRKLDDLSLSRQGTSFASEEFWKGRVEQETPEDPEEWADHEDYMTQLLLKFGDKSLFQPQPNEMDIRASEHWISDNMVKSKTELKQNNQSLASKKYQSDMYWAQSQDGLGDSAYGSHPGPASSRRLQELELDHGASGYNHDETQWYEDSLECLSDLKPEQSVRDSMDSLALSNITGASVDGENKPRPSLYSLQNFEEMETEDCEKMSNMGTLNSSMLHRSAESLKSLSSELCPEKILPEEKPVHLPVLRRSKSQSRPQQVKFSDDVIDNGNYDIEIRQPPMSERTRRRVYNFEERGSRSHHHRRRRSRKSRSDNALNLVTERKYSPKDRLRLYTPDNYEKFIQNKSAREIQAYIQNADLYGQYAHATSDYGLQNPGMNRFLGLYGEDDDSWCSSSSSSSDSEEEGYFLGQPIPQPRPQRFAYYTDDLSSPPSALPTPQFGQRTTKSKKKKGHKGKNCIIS

[4] = target: T4, Flag-CPRICKLE2 (C-terminus of PRICKLE2, aa 318 to 844) (human) (UniProt Q7Z3G6)
T4 sequence: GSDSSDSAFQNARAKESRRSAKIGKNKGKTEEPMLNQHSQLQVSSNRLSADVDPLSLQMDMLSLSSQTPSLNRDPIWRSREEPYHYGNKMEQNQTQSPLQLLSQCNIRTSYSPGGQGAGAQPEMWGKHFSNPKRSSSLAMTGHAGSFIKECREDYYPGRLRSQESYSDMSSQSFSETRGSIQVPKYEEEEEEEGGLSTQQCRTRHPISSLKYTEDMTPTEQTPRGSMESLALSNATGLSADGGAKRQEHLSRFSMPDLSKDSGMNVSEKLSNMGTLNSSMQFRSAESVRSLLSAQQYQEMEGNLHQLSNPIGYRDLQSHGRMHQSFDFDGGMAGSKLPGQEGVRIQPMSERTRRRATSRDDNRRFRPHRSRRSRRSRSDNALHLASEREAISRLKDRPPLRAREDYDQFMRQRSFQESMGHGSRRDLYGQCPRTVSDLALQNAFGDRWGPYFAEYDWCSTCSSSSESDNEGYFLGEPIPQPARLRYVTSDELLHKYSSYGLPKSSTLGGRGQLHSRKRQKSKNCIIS

[5] = target: T5, Flag-NPRICKLE2 (N-terminus of PRICKLE2, aa 1 to 317) (human) (UniProt Q7Z3G6)
T5 sequence: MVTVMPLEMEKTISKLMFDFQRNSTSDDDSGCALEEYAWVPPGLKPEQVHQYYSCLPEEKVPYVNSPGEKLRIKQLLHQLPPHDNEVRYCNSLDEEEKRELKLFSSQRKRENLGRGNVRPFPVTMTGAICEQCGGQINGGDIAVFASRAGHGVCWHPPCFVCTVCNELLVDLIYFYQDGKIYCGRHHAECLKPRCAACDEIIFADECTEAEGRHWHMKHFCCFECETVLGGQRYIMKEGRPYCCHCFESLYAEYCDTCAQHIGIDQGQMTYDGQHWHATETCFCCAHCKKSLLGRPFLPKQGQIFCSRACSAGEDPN

[6] = target: T6, Flag-NPRICKLE1 (N-terminus of PRICKLE1, aa 1 to 313) (human) (UniProt Q96MT3)
T6 sequence: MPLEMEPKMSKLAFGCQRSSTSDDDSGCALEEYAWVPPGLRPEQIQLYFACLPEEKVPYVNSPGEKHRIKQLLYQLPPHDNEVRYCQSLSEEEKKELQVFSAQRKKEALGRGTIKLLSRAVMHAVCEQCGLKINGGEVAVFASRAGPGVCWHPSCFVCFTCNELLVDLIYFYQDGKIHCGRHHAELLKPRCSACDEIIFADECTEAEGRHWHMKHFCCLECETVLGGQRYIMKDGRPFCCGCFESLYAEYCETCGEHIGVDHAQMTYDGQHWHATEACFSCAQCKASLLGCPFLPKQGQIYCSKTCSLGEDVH

Measured: binding

USP9X (ubiquitin-specific peptidase 9 X-linked), endogenous in HEK293T cells (from UniProt Q93008-3 1-2570) (enzyme)
binds: [1] | [2] | [3] | [4]

B1: BCR, endogenous in HEK293T cells (protein, UniProt P11274 1-1271)
chain: MVDPVGFAEAWKAQFPDSEPPRMELRSVGDIEQELERCKASIRRLEQEVNQERFRMIYLQTLLAKEKKSYDRQRWGFRRAAQAPDGASEPRASASRPQPAPADGADPPPAEEPEARPDGEGSPGKARPGTARRPGAAASGERDDRGPPASVAALRSNFERIRKGHGQPGADAEKPFYVNVEFHHERGLVKVNDKEVSDRISSLGSQAMQMERKKSQHGAGSSVGDASRPPYRGRSSESSCGVDGDYEDAELNPRFLKDNLIDANGGSRPPWPPLEYQPYQSIYVGGMMEGEGKGPLLRSQSTSEQEKRLTWPRRSYSPRSFEDCGGGYTPDCSSNENLTSSEEDFSSGQSSRVSPSPTTYRMFRDKSRSPSQNSQQSFDSSSPPTPQCHKRHRHCPVVVSEATIVGVRKTGQIWPNDGEGAFHGDADGSFGTPPGYGCAADRAEEQRRHQDGLPYIDDSPSSSPHLSSKGRGSRDALVSGALESTKASELDLEKGLEMRKWVLSGILASEETYLSHLEALLLPMKPLKAAATTSQPVLTSQQIETIFFKVPELYEIHKEFYDGLFPRVQQWSHQQRVGDLFQKLASQLGVYRAFVDNYGVAMEMAEKCCQANAQFAEISENLRARSNKDAKDPTTKNSLETLLYKPVDRVTRSTLVLHDLLKHTPASHPDHPLLQDALRISQNFLSSINEEITPRRQSMTVKKGEHRQLLKDSFMVELVEGARKLRHVFLFTDLLLCTKLKKQSGGKTQQYDCKWYIPLTDLSFQMVDELEAVPNIPLVPDEELDALKIKISQIKNDIQREKRANKGSKATERLKKKLSEQESLLLLMSPSMAFRVHSRNGKSYTFLISSDYERAEWRENIREQQKKCFRSFSLTSVELQMLTNSCVKLQTVHSIPLTINKEDDESPGLYGFLNVIVHSATGFKQSSNLYCTLEVDSFGYFVNKAKTRVYRDTAEPNWNEEFEIELEGSQTLRILCYEKCYNKTKIPKEDGESTDRLMGKGQVQLDPQALQDRDWQRTVIAMNGIEVKLSVKFNSREFSLKRMPSRKQTGVFGVKIAVVTKRERSKVPYIVRQCVEEIERRGMEEVGIYRVSGVATDIQALKAAFDVNNKDVSVMMSEMDVNAIAGTLKLYFRELPEPLFTDEFYPNFAEGIALSDPVAKESCMLNLLLSLPEANLLTFLFLLDHLKRVAEKEAVNKMSLHNLATVFGPTLLRPSEKESKLPANPSQPITMTDSWSLEVMSQVQVLLYFLQLEAIPAPDSKRQSILFSTEV
binds: [5] | [6]
